This assay deals with c-Myb (human (endogenous in ADSCs)) (UniProt P10242). As to the kind of experiment: co-IP; cells lysed in IP buffer, anti-c-Myb antibody (CST) with protein A/G agarose beads, eluted in SDS sample buffer, immunoblot. A general note: Immunoblotting shows a protein as a band on a membrane.

By UniProt entry, the sequences of proteins in these tests, tags left out.
UniProt P10242: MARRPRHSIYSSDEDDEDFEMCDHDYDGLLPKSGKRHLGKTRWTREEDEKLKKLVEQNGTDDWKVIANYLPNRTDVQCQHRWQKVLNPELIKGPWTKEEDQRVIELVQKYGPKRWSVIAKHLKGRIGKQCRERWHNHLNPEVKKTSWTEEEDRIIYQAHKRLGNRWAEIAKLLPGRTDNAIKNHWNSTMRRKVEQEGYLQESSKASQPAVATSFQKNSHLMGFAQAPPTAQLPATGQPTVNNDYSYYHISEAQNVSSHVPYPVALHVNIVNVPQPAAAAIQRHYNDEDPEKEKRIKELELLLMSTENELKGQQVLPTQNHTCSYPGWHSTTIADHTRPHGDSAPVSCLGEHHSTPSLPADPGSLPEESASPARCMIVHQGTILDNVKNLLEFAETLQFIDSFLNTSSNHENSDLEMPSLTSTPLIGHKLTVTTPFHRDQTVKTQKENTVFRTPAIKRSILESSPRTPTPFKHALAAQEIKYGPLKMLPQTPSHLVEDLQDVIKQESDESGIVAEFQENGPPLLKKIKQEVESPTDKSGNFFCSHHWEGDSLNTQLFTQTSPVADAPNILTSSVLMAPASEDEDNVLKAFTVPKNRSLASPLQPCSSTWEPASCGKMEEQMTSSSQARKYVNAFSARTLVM

No constants are given. Whether binding was seen depends on the method and setting. Binding seen in cells or lysates may run through a third protein. Some entries that bind do so weakly or less than the wild type.

B1: Aurora kinase A (enzyme, UniProt O14965 1-403)
chain: MDRSKENCISGPVKATAPVGGPKRVLVTQQFPCQNPLPVNSGQAQRVLCPSNSSQRIPLQAQKLVSSHKPVQNQKQKQLQATSVPHPVSRPLNNTQKSKQPLPSAPENNPEEELASKQKNEESKKRQWALEDFEIGRPLGKGKFGNVYLAREKQSKFILALKVLFKAQLEKAGVEHQLRREVEIQSHLRHPNILRLYGYFHDATRVYLILEYAPLGTVYRELQKLSKFDEQRTATYITELANALSYCHSKRVIHRDIKPENLLLGSAGELKIADFGWSVHAPSSRRTTLCGTLDYLPPEMIEGRMHDEKVDLWSLGVLCYEFLVGKPPFEANTYQETYKRISRVEFTFPDFVTEGARDLISRLLKHNPSQRPMLREVLEHPWITANSSKPSNCQNKESASKQS
As to B1, the binding result was “binds”.
